Measured values published in the supplement of paper PMC12067093, “Discovery and optimisation of a covalent ligand for TRIM25 and its application to targeted protein ubiquitination” (Chemical Science, 2025).
This is one part of the list.

Amino acid sequences for entries named in this document (tags omitted). A change or cut given only in a name is not applied to a line headed by its entry.
UniProt Q9Y490: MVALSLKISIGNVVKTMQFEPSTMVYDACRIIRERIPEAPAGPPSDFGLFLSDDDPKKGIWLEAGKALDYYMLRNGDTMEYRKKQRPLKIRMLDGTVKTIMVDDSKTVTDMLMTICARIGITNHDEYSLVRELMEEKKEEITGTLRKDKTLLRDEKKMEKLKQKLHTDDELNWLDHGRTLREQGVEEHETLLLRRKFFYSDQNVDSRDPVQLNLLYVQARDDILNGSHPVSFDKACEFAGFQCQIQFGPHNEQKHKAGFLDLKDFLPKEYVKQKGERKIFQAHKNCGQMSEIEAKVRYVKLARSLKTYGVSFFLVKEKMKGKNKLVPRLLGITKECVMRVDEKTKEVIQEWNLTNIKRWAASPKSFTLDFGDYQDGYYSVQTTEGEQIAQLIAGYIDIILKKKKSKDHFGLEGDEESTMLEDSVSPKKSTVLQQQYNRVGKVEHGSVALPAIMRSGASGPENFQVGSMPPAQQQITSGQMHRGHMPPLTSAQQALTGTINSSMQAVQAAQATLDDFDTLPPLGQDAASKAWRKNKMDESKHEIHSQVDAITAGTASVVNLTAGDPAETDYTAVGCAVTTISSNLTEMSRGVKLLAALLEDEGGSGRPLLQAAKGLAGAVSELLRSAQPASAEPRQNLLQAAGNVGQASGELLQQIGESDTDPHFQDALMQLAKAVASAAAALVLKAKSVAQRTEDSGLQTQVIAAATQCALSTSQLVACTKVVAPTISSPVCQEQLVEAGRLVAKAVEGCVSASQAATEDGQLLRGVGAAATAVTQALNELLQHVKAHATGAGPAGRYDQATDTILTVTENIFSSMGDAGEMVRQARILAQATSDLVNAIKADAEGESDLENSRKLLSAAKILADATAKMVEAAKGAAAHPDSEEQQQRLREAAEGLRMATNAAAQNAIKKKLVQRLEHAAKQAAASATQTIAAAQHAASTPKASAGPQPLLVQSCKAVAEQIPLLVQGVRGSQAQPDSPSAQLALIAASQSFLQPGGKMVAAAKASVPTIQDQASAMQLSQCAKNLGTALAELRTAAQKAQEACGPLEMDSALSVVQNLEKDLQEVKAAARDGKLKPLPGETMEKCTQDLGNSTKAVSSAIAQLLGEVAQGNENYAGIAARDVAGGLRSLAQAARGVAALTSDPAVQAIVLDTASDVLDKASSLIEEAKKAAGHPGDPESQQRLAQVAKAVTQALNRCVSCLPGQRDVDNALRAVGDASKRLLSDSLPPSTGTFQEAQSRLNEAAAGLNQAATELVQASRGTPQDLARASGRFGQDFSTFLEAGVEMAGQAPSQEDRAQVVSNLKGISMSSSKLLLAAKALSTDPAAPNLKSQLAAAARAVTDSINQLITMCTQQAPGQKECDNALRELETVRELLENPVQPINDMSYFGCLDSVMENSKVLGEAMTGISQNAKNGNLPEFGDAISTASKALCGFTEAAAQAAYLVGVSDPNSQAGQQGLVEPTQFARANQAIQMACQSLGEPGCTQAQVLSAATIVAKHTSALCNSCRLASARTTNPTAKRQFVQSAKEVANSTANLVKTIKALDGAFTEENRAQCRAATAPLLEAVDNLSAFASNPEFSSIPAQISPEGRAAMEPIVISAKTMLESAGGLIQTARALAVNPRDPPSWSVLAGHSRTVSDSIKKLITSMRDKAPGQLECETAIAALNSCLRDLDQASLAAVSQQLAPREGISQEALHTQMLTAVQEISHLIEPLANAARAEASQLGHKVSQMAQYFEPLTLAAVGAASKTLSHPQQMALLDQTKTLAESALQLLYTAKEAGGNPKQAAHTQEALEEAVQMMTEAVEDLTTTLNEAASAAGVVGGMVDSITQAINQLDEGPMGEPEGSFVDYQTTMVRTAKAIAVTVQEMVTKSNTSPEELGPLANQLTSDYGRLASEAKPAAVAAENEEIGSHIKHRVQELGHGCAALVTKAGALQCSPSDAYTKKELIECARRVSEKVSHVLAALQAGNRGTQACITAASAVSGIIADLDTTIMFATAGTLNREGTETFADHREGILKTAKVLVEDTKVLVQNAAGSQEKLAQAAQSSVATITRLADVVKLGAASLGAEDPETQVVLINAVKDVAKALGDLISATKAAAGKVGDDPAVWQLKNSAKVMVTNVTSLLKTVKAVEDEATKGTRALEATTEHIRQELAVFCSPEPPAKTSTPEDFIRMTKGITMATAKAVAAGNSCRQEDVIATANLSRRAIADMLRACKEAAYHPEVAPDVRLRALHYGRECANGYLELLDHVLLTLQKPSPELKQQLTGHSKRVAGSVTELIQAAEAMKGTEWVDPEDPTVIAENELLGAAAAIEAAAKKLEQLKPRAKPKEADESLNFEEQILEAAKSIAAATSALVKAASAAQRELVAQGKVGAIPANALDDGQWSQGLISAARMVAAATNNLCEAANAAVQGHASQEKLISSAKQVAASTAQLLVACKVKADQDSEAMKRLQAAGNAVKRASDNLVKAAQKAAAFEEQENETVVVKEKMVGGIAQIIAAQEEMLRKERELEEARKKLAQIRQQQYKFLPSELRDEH
UniProt O43294, whole entry, looked up: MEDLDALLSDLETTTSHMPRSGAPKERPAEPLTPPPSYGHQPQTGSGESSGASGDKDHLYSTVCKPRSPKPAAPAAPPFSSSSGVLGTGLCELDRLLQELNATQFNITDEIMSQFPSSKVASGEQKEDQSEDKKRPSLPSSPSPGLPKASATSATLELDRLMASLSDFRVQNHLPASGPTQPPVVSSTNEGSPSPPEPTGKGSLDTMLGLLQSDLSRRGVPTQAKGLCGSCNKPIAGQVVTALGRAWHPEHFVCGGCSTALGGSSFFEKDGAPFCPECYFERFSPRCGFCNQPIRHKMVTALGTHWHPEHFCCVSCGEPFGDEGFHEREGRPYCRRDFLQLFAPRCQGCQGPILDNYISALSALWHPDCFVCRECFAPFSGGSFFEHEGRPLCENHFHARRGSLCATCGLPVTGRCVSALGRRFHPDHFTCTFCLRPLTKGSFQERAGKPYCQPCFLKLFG
UniProt Q13488, whole entry, looked up: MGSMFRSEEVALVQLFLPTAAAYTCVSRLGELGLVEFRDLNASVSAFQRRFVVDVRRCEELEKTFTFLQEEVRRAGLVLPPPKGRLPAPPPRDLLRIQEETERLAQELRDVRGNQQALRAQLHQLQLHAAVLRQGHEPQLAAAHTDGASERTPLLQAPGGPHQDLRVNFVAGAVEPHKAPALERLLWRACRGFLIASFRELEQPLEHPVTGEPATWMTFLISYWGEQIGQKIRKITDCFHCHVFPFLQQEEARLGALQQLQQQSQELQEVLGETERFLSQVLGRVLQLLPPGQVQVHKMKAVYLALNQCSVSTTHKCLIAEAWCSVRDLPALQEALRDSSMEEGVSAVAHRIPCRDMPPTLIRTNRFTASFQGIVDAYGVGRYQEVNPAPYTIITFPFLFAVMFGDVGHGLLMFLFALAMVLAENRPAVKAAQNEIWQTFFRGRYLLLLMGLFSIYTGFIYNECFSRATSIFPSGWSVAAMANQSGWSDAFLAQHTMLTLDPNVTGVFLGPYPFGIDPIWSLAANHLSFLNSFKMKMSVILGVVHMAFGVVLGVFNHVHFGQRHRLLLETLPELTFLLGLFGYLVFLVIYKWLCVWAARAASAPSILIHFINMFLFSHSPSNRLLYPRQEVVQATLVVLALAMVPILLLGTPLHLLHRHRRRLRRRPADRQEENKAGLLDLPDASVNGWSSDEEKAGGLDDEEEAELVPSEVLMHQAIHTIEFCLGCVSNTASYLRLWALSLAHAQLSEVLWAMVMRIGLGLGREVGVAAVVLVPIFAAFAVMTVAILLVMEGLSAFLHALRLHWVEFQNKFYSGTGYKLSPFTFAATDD
UniProt Q8WUY1: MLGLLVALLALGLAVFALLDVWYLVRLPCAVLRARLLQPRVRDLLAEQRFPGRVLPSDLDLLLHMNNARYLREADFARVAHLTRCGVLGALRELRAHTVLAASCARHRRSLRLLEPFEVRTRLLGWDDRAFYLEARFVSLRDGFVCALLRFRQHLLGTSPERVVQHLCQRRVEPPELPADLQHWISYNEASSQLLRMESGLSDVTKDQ
UniProt Q86UE8, whole entry, looked up: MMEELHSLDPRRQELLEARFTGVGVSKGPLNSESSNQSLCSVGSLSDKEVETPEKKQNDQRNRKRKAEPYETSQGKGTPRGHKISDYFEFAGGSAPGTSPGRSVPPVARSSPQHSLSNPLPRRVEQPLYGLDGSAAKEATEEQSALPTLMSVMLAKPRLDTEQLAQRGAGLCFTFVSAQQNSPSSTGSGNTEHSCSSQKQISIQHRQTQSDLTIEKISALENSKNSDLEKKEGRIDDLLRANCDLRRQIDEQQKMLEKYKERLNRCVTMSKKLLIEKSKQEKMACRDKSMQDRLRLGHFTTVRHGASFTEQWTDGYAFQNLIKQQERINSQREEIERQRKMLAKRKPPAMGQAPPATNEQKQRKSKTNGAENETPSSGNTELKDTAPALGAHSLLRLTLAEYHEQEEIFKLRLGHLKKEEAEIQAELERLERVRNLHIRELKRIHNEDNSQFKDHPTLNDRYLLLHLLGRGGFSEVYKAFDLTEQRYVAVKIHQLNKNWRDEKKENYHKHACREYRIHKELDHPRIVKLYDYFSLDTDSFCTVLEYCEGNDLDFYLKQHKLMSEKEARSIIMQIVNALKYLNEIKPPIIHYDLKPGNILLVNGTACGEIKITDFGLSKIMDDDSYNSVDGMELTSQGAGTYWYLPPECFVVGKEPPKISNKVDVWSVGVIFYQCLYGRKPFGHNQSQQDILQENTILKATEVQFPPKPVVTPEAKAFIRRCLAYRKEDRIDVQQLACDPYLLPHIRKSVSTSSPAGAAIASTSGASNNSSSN
UniProt P17987, whole entry, looked up: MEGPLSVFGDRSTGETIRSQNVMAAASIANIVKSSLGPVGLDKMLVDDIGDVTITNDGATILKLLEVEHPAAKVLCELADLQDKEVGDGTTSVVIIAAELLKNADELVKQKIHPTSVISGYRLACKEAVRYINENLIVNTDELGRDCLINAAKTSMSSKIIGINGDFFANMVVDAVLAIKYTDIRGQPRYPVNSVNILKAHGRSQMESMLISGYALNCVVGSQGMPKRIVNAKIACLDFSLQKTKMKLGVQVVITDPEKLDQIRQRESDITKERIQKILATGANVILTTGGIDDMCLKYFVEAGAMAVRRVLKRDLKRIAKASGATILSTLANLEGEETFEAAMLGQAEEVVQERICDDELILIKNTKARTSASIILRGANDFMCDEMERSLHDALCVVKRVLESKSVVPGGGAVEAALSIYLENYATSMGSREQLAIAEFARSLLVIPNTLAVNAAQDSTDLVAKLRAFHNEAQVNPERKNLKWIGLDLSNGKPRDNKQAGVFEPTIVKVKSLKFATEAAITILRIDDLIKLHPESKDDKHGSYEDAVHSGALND
UniProt Q96J01: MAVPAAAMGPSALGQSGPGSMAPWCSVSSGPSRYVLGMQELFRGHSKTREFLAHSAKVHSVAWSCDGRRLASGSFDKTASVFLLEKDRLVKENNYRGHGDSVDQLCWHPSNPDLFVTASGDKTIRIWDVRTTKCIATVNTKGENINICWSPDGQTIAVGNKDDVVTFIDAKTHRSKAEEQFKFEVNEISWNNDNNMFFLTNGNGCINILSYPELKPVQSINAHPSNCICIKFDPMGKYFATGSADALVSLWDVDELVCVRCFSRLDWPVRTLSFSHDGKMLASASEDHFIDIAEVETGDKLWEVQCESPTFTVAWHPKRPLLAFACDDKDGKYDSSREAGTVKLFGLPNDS
UniProt Q9Y6I9: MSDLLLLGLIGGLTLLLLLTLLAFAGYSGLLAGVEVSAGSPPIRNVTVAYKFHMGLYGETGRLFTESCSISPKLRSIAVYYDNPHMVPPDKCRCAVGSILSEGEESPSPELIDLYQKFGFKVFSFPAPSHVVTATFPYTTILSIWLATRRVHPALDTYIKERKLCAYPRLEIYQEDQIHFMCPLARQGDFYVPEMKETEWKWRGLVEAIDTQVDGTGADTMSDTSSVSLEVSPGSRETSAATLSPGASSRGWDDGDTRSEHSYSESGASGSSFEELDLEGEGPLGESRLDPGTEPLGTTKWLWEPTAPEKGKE
UniProt P04183: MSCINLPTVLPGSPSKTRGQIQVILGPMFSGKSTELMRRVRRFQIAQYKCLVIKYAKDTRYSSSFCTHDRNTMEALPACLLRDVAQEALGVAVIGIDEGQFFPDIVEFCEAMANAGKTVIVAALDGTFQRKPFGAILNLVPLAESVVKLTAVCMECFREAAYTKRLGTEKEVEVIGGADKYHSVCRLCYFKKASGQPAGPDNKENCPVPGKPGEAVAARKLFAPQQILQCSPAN
UniProt Q5JUR7: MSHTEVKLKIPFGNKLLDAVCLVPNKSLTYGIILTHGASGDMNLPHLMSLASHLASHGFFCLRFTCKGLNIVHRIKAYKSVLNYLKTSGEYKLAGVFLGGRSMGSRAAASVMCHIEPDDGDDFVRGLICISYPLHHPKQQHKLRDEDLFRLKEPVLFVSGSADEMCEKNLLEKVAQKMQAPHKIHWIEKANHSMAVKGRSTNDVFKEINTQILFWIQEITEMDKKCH

Compound: CC1Cc2ccccc2N1C(=O)C1CCCN(C1)C(=O)CCl (mixture of isomers) [TRIM25 ligand 11 (diastereomer mixture)]
Experiment: probe-labelled cysteine peptide fold change vs DMSO (competition) (log2 fold change); higher = less target engagement (more negative = stronger competition)
Settings: THP-1, incubation time: 4 h
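Also: competitive chemoproteomic profiling in live THP-1 cells with an iodoacetamide desthiobiotin (IA-DTB) probe, comparing probe-labelled peptide intensities in compound-treated cells against DMSO-treated controls.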

| Target | probe-labelled cysteine peptide fold change (10 µM) | probe-labelled cysteine peptide fold change (50 µM) |
| --- | --- | --- |
| TIAL1_Q01085_51_MITEHTSNDPYCFVEFYEHR (UniProt Q01085) | 0.194 | -0.0405 |
| TLN1_Q9Y490_1023_ASVPTIQDQASAMQLSQCAK (UniProt Q9Y490) | 0.00686 | 0.129 |
| TGFB1I1_O43294_431_FHPDHFTCTFCLRPLTK (UniProt O43294) | 0.0316 | 0.0378 |
| TCIRG1_Q13488_238+241_KITDCFHCHVFPFLQQEEAR (UniProt Q13488) | 0.117 | -0.122 |
| THEM6_Q8WUY1_104_AHTVLAASCAR (UniProt Q8WUY1) | 0.0289 | 0.0465 |
| TCIRG1_Q13488_241_ITDCFHCHVFPFLQQEEAR (UniProt Q13488) | 0.0711 | 0.0192 |
| TLK2_Q86UE8_737_IDVQQLACDPYLLPHIR (UniProt Q86UE8) | -0.0777 | -0.0558 |
| TCP1_P17987_76_VLCELADLQDK (UniProt P17987) | 0.0382 | -0.00996 |
| TLE3_Q04726_490_QINTLSHGEVVCAVTISNPTR (UniProt Q04726) | -0.0055 | -0.0265 |
| THOC3_Q96J01_106_GHGDSVDQLCWHPSNPDLFVTASGDK (UniProt Q96J01) | -0.016 | -0.235 |
| TEX264_Q9Y6I9_94_CAVGSILSEGEESPSPELIDLYQK (UniProt Q9Y6I9) | 0.115 | 0.126 |
| TK1_P04183_153_LTAVCMECFR (UniProt P04183) | 0.0482 | 0.348 |
| TCP1_P17987_357_ICDDELILIK (UniProt P17987) | 0.0589 | -0.0138 |
| TEX30_Q5JUR7_21_LLDAVCLVPNK (UniProt Q5JUR7) | 0.108 | -0.0166 |

Record cards (already shown).
TCP1_P17987_76_VLCELADLQDK (UniProt P17987) in the list: probe-labelled cysteine peptide fold change (10 µM): 0.0382; probe-labelled cysteine peptide fold change (50 µM): -0.00996
TCP1_P17987_357_ICDDELILIK (UniProt P17987) in the list: probe-labelled cysteine peptide fold change (10 µM): 0.0589; probe-labelled cysteine peptide fold change (50 µM): -0.0138
